# Assay results taken from the supplement of paper PMC12067093, “Discovery and optimisation of a covalent ligand for TRIM25 and its application to targeted protein ubiquitination” (Chemical Science, 2025).
# By UniProt entry, the sequences of proteins in these tests, tags left out. Where a name states a change or a piece, a line headed by the entry shows the natural chain unless it says otherwise.
# UniProt Q9NTJ3, whole entry, looked up: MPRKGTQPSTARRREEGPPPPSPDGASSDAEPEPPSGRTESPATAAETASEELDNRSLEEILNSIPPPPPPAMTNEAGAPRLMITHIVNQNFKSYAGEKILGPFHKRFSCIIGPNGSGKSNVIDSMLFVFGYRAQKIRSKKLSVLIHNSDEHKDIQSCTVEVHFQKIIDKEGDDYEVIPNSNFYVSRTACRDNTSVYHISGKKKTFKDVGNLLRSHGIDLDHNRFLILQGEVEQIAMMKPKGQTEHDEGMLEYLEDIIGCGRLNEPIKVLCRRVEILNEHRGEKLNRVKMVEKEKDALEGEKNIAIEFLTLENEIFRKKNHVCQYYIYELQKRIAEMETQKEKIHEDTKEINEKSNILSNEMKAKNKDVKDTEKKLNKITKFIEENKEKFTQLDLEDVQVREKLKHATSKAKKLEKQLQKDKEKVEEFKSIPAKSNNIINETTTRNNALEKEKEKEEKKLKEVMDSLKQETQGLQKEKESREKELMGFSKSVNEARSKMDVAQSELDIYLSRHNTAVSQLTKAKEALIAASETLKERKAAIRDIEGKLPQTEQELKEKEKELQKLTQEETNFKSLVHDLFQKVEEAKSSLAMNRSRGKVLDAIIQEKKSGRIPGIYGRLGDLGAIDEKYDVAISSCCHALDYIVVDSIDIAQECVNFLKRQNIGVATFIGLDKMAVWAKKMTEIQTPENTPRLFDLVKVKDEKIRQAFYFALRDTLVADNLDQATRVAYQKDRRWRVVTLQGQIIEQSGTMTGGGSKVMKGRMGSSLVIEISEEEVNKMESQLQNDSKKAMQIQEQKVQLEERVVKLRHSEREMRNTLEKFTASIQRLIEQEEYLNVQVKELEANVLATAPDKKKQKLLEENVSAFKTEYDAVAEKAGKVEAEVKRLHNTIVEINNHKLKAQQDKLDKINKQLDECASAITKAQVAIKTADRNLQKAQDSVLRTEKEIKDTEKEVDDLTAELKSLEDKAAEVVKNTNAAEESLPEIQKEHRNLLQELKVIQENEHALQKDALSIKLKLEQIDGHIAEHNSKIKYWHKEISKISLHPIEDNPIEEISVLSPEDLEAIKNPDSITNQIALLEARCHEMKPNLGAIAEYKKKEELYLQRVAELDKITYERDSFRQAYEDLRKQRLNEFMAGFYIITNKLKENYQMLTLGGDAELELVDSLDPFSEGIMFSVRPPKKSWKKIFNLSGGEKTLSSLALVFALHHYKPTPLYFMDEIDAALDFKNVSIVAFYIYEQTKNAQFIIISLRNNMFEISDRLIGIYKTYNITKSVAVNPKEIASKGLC
# UniProt P52788: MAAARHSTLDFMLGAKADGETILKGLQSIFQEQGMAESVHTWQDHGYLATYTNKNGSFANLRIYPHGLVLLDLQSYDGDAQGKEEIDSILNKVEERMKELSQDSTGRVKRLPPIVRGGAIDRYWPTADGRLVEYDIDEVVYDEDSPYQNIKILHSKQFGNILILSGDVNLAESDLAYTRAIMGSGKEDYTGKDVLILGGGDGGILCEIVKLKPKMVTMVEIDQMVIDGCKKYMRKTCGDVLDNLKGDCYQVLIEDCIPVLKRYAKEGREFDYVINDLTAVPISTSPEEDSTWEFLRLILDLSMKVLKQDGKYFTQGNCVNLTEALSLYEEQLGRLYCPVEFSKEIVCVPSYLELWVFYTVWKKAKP
# UniProt P84022, whole entry, looked up: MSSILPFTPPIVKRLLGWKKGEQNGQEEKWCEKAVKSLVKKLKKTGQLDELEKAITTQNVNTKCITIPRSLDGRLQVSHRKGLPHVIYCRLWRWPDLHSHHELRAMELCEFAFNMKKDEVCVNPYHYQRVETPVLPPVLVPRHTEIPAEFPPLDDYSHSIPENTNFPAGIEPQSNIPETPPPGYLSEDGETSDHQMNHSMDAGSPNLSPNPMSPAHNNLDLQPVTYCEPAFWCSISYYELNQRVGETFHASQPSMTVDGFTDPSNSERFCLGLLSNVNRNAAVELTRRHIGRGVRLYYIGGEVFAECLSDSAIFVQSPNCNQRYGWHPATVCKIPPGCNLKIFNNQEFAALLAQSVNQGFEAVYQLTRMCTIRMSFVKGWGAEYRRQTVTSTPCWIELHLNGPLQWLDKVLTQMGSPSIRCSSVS
# UniProt O95347, whole entry, looked up: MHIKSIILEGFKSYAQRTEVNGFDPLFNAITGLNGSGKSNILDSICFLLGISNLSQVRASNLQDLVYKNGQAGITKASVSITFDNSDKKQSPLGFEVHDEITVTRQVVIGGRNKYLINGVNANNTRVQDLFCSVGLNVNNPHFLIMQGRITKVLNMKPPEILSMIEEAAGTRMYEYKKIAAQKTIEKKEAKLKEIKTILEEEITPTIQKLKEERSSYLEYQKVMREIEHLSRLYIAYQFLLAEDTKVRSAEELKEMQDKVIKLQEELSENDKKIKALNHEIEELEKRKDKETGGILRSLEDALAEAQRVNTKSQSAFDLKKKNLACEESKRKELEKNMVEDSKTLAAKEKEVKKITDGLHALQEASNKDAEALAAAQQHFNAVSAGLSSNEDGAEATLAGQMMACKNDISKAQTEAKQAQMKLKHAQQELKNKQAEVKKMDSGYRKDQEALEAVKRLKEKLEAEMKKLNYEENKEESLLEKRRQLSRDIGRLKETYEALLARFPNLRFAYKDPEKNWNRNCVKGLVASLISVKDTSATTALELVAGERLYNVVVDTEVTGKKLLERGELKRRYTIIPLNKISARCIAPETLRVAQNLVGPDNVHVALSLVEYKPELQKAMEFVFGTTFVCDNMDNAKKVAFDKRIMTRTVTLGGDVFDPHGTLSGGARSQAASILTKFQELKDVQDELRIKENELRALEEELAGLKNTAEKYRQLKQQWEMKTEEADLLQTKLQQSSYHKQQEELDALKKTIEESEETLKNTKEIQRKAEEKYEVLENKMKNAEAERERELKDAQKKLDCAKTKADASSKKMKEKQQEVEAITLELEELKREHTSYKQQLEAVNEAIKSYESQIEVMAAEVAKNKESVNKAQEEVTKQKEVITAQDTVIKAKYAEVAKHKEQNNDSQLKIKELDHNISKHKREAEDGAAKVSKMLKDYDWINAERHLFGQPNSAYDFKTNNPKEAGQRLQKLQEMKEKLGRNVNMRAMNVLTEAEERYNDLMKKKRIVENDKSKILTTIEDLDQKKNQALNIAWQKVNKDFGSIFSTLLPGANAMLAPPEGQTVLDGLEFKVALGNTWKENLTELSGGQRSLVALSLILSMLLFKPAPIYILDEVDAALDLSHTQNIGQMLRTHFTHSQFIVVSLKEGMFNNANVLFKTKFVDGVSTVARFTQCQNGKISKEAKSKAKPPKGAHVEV
# UniProt O60264, whole entry, looked up: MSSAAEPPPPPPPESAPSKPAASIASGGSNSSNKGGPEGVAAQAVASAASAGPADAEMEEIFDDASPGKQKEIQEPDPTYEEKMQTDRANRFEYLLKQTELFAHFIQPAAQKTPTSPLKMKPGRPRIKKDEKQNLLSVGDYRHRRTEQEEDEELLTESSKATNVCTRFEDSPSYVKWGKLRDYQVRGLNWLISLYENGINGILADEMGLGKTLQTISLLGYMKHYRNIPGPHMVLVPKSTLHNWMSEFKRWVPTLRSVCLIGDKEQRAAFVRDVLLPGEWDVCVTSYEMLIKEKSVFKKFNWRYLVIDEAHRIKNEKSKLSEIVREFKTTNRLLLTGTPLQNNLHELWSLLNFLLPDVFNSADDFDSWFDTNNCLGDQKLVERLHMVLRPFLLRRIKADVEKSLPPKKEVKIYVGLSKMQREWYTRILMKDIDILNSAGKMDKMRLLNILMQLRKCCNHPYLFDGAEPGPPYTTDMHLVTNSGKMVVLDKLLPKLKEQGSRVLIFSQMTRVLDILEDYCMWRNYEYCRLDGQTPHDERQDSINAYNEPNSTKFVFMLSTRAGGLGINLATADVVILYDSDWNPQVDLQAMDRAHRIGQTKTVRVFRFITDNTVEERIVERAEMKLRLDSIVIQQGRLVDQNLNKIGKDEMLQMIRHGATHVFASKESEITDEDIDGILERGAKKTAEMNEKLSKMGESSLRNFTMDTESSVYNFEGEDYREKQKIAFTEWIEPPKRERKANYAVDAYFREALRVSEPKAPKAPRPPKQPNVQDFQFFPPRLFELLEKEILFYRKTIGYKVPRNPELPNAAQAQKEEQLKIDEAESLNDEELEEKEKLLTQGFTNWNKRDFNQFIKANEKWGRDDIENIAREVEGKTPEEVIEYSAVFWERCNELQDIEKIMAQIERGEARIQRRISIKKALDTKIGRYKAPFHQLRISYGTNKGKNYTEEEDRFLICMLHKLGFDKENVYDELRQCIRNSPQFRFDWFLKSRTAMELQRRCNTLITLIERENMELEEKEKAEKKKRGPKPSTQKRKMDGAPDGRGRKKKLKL
# UniProt P62316, whole entry, looked up: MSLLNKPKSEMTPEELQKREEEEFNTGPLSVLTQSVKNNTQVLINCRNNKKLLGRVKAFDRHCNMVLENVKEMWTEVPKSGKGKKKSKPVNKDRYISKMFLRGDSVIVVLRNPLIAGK
# UniProt Q13485: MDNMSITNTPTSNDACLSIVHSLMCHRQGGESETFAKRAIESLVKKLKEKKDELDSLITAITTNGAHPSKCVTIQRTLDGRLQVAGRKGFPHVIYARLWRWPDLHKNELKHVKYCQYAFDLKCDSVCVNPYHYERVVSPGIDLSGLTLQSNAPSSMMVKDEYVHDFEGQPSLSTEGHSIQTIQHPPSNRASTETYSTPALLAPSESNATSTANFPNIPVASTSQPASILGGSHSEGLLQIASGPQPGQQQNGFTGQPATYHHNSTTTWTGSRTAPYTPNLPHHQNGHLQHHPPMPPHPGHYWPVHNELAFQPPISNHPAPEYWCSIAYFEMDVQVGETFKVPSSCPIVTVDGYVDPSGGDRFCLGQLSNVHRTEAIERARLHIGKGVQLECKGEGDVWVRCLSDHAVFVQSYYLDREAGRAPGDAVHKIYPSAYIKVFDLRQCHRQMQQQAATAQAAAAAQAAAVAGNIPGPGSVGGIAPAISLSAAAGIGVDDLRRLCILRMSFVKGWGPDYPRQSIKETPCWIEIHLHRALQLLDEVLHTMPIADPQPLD
# UniProt Q92922, whole entry, looked up: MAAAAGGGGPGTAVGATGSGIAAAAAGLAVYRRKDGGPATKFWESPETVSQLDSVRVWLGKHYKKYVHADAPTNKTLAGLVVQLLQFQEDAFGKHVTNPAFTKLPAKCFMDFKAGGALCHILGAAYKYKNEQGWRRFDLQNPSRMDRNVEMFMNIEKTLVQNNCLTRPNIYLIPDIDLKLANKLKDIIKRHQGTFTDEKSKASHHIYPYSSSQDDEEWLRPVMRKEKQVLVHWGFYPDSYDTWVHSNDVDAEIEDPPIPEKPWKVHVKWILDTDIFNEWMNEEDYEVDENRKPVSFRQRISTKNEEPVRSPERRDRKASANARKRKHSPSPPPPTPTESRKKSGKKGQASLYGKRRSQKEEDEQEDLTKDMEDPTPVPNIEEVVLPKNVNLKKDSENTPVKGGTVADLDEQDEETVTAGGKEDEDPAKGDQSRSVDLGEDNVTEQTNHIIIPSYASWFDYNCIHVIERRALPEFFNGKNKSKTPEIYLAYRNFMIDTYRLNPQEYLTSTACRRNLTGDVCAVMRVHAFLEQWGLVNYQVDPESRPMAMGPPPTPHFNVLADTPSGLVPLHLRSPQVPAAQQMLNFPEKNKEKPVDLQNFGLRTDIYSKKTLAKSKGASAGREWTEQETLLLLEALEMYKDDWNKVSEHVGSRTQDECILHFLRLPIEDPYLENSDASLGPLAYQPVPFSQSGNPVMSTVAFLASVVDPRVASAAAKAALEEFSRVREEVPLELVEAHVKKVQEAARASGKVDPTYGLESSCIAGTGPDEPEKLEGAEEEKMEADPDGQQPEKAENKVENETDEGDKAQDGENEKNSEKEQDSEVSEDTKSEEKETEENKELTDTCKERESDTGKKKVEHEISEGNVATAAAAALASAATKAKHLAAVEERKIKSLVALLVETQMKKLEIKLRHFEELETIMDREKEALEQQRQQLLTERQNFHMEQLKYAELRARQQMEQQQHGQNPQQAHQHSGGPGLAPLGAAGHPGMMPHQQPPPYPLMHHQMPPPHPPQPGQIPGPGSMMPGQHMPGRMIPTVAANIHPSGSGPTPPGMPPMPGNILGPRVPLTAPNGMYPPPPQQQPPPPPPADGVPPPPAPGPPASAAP
# UniProt Q8NBI5: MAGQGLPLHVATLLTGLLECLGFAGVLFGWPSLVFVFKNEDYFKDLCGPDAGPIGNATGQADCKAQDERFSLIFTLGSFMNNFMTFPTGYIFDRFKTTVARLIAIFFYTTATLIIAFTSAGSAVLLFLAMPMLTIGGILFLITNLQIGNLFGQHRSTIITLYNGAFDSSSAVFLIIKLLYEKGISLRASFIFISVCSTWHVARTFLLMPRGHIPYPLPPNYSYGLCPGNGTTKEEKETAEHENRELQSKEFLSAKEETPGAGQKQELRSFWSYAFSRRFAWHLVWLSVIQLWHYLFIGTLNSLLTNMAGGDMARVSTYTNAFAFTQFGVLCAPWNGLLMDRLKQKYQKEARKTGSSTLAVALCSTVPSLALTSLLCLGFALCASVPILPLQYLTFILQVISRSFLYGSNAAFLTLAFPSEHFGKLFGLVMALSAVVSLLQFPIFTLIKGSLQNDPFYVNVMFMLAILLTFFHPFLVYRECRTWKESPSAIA
# The list shows a part of the results.
# Compound: Cc1cc(ccc1-c1ccccc1)C(=O)N1CCCN(CC1)C(=O)CCl [compound 10]
# Test: probe-labelled cysteine peptide fold change vs DMSO (competition) (log2 fold change); higher = less target engagement (more negative = stronger competition)
# Settings: THP-1, incubation time: 4 h
# 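Note: competitive profiling in live THP-1 cells: cysteine peptides tagged with an iodoacetamide desthiobiotin (IA-DTB) probe, intensity after compound treatment relative to DMSO-treated cells.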
Target,probe-labelled cysteine peptide fold change (10 µM),probe-labelled cysteine peptide fold change (50 µM)
SMC4_Q9NTJ3_260_GQTEHDEGMLEYLEDIIGCGR (UniProt Q9NTJ3),0.0057,0.162
SLFN11_Q7Z7L1_126_LCSLSSSLYR (UniProt Q7Z7L1),-0.0272,-0.368
SMS_P52788_206_DVLILGGGDGGILCEIVK (UniProt P52788),0.0241,-0.0455
SMURF2_Q9HAU4_393_QELSQQQPQAGHCR (UniProt Q9HAU4),-0.000784,0.38
SMAD3_P84022_394_QTVTSTPCWIELHLNGPLQWLDK (UniProt P84022),0.0484,-0.102
SMC2_O95347_326_NLACEESK (UniProt O95347),-0.0606,-0.489
SMARCA5_O60264_519_VLDILEDYCMWR (UniProt O60264),0.0479,0.0111
SMC4_Q9NTJ3_916_QLDECASAITK (UniProt Q9NTJ3),0.0503,0.204
SMYD3_Q9H7B4_261+263_DQYCFECDCFR (UniProt Q9H7B4),-0.0235,-0.599
SNRPD2_P62316_63_AFDRHCNMVLENVK (UniProt P62316),-0.144,-0.738
SMARCA5_O60264_976_ENVYDELRQCIR (UniProt O60264),0.287,-0.293
SMC4_Q9NTJ3_158_DIQSCTVEVHFQK (UniProt Q9NTJ3),0.0884,0.197
SNRNP200_O75643_742_DMCLEK (UniProt O75643),0.0519,0.0646
SMC2_O95347_630_AMEFVFGTTFVCDNMDNAK (UniProt O95347),-0.169,-0.0333
SMU1_Q2TAY7_416_NPEHFVVCNR (UniProt Q2TAY7),0.0652,-0.0854
SMAP2_Q8WU79_196_STAPVMDLLGLDAPVACSIANSK (UniProt Q8WU79),-0.152,-0.384
SMARCA2_P51531_91_GIVEDIHCGSMK (UniProt P51531),-0.144,-0.439
SMYD5_Q6GMV2_136_LAATEQYHQVLCPGPSQDDPLHPLNK (UniProt Q6GMV2),-0.0142,-0.404
SMARCC2_Q8TAQ2_91_AGGSLCHILAAAYK (UniProt Q8TAQ2),-0.115,0.0758

Target,probe-labelled cysteine peptide fold change (10 µM),probe-labelled cysteine peptide fold change (50 µM)
SMARCAD1_Q9H4L7_741_IELCAMSEK (UniProt Q9H4L7),0.0113,-0.00583
SMC5_Q8IY18_582_ELFDAPDPVMSYLCCQYHIHEVPVGTEK (UniProt Q8IY18),0.181,0.215
SMC6_Q96SB8_58_NFMCHSMLGPFK (UniProt Q96SB8),-0.0959,0.109
SMARCA4_P51532_998_CDMSALQR (UniProt P51532),0.126,0.198
SLC4A1AP_Q9BWU0_430_EAMIQCSLEACR (UniProt Q9BWU0),0.0766,-0.743
SMAD4_Q13485_127_CDSVCVNPYHYER (UniProt Q13485),0.122,0.186
SMARCC1_Q92922_108_CFMDFK (UniProt Q92922),-0.151,-0.0801
SLX4_Q8IY92_786_FGVSELVHLCEQVPIATDSEGKPWEEK (UniProt Q8IY92),0.264,0.222
SNRNP200_O75643_1471_KNVQNINLFVVDEVHLIGGENGPVLEVICSR (UniProt O75643),0.443,0.176
SLC43A3_Q8NBI5_226_GHIPYPLPPNYSYGLCPGNGTTK (UniProt Q8NBI5),-0.217,-0.0751
SMCHD1_A6NHR9_492_LIPYTSVEDFDWCTPPK (UniProt A6NHR9),-0.286,0.017
SMCHD1_A6NHR9_1018_IEIPSCK (UniProt A6NHR9),-0.18,0.0615
SMCHD1_A6NHR9_444_YHPFLYDRETYPDDPCFPSK (UniProt A6NHR9),-0.159,-0.206
SMS_P52788_248_GDCYQVLIEDCIPVLK (UniProt P52788),0.0426,0.0386
SMAD4_Q13485_363_FCLGQLSNVHR (UniProt Q13485),0.184,0.462
SMARCC1_Q92922_119_AGGALCHILGAAYK (UniProt Q92922),-0.116,0.152
SLC4A2_P04920_1215_CLDANEAEPVFDER (UniProt P04920),0.0795,0.42
SNRNP200_O75643_1127_RMWQSMCPLR (UniProt O75643),-0.12,0.284
